Our source for the binding values is patent US20090286738A1, “Gene Regulation” (ST. GEORGE'S ENTERPRISES LIMITED, priority 2005, published 2009).

The chains behind the UniProt entries cited, without tags or fusion partners.
UniProt P28357: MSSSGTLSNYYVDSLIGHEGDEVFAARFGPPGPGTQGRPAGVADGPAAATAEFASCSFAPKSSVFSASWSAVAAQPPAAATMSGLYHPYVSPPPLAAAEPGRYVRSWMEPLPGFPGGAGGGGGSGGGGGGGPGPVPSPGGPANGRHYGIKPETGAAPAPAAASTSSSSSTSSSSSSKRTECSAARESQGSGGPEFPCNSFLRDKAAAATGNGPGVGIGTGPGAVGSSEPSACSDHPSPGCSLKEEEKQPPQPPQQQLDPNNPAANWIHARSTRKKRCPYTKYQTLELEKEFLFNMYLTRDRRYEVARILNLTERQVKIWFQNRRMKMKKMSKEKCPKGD
UniProt P06537: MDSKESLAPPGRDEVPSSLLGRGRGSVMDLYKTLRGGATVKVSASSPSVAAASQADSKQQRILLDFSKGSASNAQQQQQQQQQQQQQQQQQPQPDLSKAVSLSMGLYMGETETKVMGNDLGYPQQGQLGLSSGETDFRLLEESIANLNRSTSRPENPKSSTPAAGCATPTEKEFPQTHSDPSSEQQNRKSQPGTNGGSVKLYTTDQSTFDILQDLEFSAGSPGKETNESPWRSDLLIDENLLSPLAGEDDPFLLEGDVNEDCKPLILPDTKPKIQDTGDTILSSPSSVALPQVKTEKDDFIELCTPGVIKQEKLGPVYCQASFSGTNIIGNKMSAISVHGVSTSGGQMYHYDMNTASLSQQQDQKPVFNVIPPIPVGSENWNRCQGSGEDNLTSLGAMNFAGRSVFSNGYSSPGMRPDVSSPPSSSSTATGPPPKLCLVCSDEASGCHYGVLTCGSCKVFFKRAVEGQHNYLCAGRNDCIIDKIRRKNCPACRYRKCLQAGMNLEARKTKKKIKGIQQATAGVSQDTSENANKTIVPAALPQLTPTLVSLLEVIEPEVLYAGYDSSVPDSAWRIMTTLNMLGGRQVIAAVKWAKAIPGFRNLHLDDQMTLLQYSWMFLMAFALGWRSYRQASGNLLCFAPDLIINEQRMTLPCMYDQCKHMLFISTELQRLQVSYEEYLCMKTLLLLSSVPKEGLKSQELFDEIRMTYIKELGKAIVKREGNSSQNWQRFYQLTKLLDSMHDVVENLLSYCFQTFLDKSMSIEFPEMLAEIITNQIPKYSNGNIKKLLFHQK

These are yes or no findings as the source states them, for the method shown. In cells and extracts the contact can be indirect. Some results given as binding are weak or reduced against the parent protein; the word gives no strength.

Test [1] concerns the target T1, PBX proteins of murine B16 melanoma cells (mouse (murine B16 melanoma cells)) (UniProt P41778).
T1 sequence (looked up): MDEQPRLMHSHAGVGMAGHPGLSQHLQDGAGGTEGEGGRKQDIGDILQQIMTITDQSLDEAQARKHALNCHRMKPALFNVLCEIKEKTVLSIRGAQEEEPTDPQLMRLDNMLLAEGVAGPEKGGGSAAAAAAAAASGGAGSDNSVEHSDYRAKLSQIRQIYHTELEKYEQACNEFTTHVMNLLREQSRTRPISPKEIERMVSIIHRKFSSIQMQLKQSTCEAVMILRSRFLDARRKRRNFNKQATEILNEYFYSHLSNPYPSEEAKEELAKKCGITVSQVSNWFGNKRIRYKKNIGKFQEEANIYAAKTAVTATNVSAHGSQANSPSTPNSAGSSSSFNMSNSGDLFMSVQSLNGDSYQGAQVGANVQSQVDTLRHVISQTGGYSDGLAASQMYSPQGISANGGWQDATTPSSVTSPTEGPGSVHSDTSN
Put plainly: co-immunoprecipitation with anti-PBX antibody from B16 cell lysate, precipitates probed for HOXD9, GR and PBX.

Test [2] deals with T1, PBX proteins of murine B16 melanoma cells (mouse (murine B16 melanoma cells)). In words: co-immunoprecipitation with anti-PBX antibody from B16 cell lysate, Western blot. A general note: Immunoblotting shows a protein as a band on a membrane.

For HOXD9 (from UniProt P28357 1-339), the binding entry in test [1] is “binds”. As to “glucocorticoid receptor (GR) (from UniProt P06537 1-792)”, the binding result in test [2] and in test [1] was “binds” throughout.
